Results deposited as PubChem BioAssay AID1259308 (NCATS, 2017)
Shown is an unselected part of about 59,000 deposited reagents. Over the whole deposit, about 1,510 (2.6%) are marked active. 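Calls use total luciferase alone and ignore viability, so some active siRNAs may act by altering cell number.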 Reagents against one gene are numbered here. Reagent sequences are not shown.

- Purpose: 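Genes whose loss raises luciferase production in HEK293 cells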 (primary screen)
- Cell system: human HEK293 embryonic kidney cells stably expressing firefly luciferase (HEK-CMV-Luc2-Hygro)
- Knock-down reagent: single siRNA against human genes, 0.8 pmol siRNA per well
- Duration: 72 h
- Read-out: 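Luciferase light (ONE-Glo) measured on one replicate plate set and viability (CellTiter-Glo) on the other, scaled to a negative control siRNA, with robust z-scores and luciferase per cell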
- Scale: total luciferase, z-score and total luciferase, % of control: higher = more reporter protein produced; luciferase per cell, z-score: higher = more reporter output per viable cell; viable cells, % of control: higher = more viable cells
- Active means: 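An siRNA counts as active if its total luciferase robust z-score exceeds 3; genes with two or more such siRNAs out of three were retested with fresh siRNAs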
- Calls: active = raised luciferase; inactive = no rise

The first 3 records, ahead of the listing:
target | siRNA no. | total luciferase, z-score | total luciferase, % of control | luciferase per cell, z-score | viable cells, % of control | Call
SAMD9L (GeneID 219285) | 1 | 0.873 | 99.3 | 0.763 | 90.7 | inactive
SAMD9L (GeneID 219285) | 2 | -0.276 | 76.4 | 0.317 | 78.5 | inactive
SAMD9L (GeneID 219285) | 3 | 2.65 | 135 | 2.53 | 77.2 | inactive

Main list, from the first entry:
target | siRNA no. | total luciferase, z-score | total luciferase, % of control | luciferase per cell, z-score | viable cells, % of control | Call
SAMD9L (GeneID 219285) | 1 | 0.873 | 99.3 | 0.763 | 90.7 | inactive
SAMD9L (GeneID 219285) | 2 | -0.276 | 76.4 | 0.317 | 78.5 | inactive
SAMD9L (GeneID 219285) | 3 | 2.65 | 135 | 2.53 | 77.2 | inactive
SPPL3 (GeneID 121665) | 1 | -0.171 | 78.5 | -0.41 | 97.7 | inactive
SPPL3 (GeneID 121665) | 2 | 0.181 | 85.5 | -0.47 | 108 | inactive
SPPL3 (GeneID 121665) | 3 | 1.73 | 116 | 0.598 | 111 | inactive
PWWP3A (GeneID 84939) | 1 | 0.681 | 95.4 | 0.802 | 86.3 | inactive
PWWP3A (GeneID 84939) | 2 | 0.00759 | 82 | -0.0976 | 94.1 | inactive
PWWP3A (GeneID 84939) | 3 | -0.264 | 76.6 | -0.359 | 94.1 | inactive
CCDC57 (GeneID 284001) | 1 | -0.316 | 75.6 | -0.245 | 90.1 | inactive
CCDC57 (GeneID 284001) | 2 | -1.93 | 43.6 | -2.08 | 84.1 | inactive
CCDC57 (GeneID 284001) | 3 | 1.49 | 111 | 0.93 | 97.5 | inactive
DTX3 (GeneID 196403) | 1 | 5.37 | 189 | 2.84 | 99.9 | active
DTX3 (GeneID 196403) | 2 | 0.226 | 86.4 | -0.122 | 99.7 | inactive
DTX3 (GeneID 196403) | 3 | -0.928 | 63.4 | -1.41 | 103 | inactive
SLCO1B1 (GeneID 10599) | 1 | -0.173 | 78.4 | -0.584 | 102 | inactive
SLCO1B1 (GeneID 10599) | 2 | -0.352 | 74.9 | -1.29 | 117 | inactive
SLCO1B1 (GeneID 10599) | 3 | -1.03 | 61.5 | -0.0222 | 69.1 | inactive
SLC30A1 (GeneID 7779) | 1 | 4.6 | 173 | 2.64 | 96.8 | active
SLC30A1 (GeneID 7779) | 2 | -1.51 | 51.8 | -1.78 | 92.4 | inactive
SLC30A1 (GeneID 7779) | 3 | -2.04 | 41.3 | -2.55 | 90.3 | inactive
TMEM205 (GeneID 374882) | 1 | 0.874 | 99.3 | 0.806 | 89.7 | inactive
TMEM205 (GeneID 374882) | 2 | 1.66 | 115 | 1.09 | 96.4 | inactive
TMEM205 (GeneID 374882) | 3 | -1.62 | 49.7 | -1.97 | 93.2 | inactive
LINC00174 (GeneID 285908) | 1 | -1.84 | 45.4 | -1.32 | 71.8 | inactive
LINC00174 (GeneID 285908) | 2 | 0.962 | 101 | 0.53 | 98.2 | inactive
LINC00174 (GeneID 285908) | 3 | 0.371 | 89.3 | -0.165 | 104 | inactive
PNMA3 (GeneID 29944) | 1 | -1.72 | 47.7 | -0.472 | 60.4 | inactive
PNMA3 (GeneID 29944) | 2 | 2.7 | 136 | 1.72 | 96.4 | inactive
PNMA3 (GeneID 29944) | 3 | -0.916 | 63.7 | -1.2 | 97.5 | inactive
GATB (GeneID 5188) | 1 | 0.547 | 92.8 | 0.324 | 95.2 | inactive
GATB (GeneID 5188) | 2 | -0.213 | 77.6 | -0.726 | 105 | inactive
GATB (GeneID 5188) | 3 | 0.304 | 87.9 | 0.514 | 85.8 | inactive
XIAP (GeneID 331) | 1 | -1.3 | 56.1 | -1.34 | 89.2 | inactive
XIAP (GeneID 331) | 2 | -0.114 | 79.6 | -0.767 | 109 | inactive
XIAP (GeneID 331) | 3 | 0.157 | 85 | 0.0105 | 94.7 | inactive
GBP7 (GeneID 388646) | 1 | 0.46 | 91 | 0.0487 | 100 | inactive
GBP7 (GeneID 388646) | 2 | -0.146 | 79 | -0.636 | 104 | inactive
GBP7 (GeneID 388646) | 3 | 0.0558 | 83 | 1.84 | 57.2 | inactive
